# Experimental data from PMC10548170.
# The chains behind the UniProt entries cited, without tags or fusion partners.
# UniProt Q8R4B8: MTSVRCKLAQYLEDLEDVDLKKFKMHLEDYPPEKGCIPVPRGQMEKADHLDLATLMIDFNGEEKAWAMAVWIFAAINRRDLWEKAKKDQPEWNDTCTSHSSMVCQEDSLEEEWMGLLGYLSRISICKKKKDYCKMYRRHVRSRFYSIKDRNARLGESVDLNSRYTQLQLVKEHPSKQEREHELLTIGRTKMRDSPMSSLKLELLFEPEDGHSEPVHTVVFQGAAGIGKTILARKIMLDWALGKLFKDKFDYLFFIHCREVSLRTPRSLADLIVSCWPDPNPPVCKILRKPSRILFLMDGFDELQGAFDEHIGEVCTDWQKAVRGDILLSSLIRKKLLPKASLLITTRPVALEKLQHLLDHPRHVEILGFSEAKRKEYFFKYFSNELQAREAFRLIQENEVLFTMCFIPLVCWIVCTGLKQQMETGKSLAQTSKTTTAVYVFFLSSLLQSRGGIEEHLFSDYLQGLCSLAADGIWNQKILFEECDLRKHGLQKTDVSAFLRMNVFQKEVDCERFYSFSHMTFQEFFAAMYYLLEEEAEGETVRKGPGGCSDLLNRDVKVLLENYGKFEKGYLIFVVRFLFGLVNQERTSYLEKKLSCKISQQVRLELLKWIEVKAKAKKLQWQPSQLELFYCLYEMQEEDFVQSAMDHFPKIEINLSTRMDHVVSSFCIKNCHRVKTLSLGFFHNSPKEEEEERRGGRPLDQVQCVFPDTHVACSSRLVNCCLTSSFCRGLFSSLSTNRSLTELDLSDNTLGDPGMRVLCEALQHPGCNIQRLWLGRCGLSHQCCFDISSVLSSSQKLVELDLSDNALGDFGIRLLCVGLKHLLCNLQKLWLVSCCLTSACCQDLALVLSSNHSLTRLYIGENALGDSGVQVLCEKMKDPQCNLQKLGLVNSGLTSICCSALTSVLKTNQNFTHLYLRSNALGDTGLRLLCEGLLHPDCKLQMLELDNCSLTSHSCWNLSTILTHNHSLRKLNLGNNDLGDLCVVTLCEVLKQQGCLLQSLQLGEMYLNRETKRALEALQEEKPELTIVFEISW
# UniProt Q9ULZ3: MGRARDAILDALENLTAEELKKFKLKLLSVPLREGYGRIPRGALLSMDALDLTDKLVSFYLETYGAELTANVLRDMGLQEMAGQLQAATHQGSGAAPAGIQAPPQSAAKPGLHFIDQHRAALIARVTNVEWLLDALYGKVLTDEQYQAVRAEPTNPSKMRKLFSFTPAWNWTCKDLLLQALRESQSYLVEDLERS
# UniProt P29466: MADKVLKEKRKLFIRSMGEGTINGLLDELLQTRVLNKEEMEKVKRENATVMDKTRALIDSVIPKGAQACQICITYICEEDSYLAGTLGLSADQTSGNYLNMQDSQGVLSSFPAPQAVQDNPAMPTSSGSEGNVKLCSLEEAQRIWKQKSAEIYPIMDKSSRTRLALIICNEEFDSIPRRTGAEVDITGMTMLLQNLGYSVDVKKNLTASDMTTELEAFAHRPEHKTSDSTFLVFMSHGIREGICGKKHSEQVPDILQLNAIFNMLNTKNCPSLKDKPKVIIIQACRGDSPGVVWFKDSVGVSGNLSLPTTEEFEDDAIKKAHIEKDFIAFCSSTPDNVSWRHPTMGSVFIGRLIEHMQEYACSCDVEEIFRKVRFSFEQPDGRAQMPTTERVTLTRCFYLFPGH
# Results are given in words; binding and its absence hold for the method and conditions named. In cells and extracts the contact can be indirect. Some entries that bind do so weakly or less than the wild type. For part of these data: Where a sequence is shown, tags or fusion partners need not be part of it.
# B1: MAVS, endogenous mouse (protein, UniProt Q8VCF0 1-503)
# chain: MTFAEDKTYKYIRDNHSKFCCVDVLEILPYLSCLTASDQDRLRASYRQIGNRDTLWGLFNNLQRRPGWVEVFIRALQICELPGLADQVTRVYQSYLPPGTSLRSLEPLQLPDFPAAVSGPSAFAPGHNIPDHGLRETPSCPKPVQDTQPPESPVENSEQLLQTNSGAVARMSGGSLIPSPNQQALSPQPSREHQEQEPELGGAHAANVASVPIATYGPVSPTVSFQPLPRTALRTNLLSGVTVSALSADTSLSSSSTGSAFAKGAGDQAKAATCFSTTLTNSVTTSSVPSPRLVPVKTMSSKLPLSSKSTAAMTSTVLTNTAPSKLPSNSVYAGTVPSRVPASVAKAPANTIPPERNSKQAKETPEGPATKVTTGGNQTGPNSSIRSLHSGPEMSKPGVLVSQLDEPFSACSVDLAISPSSSLVSEPNHGPEENEYSSFRIQVDESPSADLLGSPEPLATQQPQEEEEHCASSMPWAKWLGATSALLAVFLAVMLYRSRRLAQ
# How the values were obtained:
# [1] = target: T1, Myc-MARCH5 (UniProt Q9NX47); test: co-IP; HEK293T cells cotransfected with Myc-MARCH5 and FLAG-tagged NLRP3, ASC or pro-caspase-1; text: anti-Myc antibody, legend: anti-FLAG-M2 beads
# T1 sequence: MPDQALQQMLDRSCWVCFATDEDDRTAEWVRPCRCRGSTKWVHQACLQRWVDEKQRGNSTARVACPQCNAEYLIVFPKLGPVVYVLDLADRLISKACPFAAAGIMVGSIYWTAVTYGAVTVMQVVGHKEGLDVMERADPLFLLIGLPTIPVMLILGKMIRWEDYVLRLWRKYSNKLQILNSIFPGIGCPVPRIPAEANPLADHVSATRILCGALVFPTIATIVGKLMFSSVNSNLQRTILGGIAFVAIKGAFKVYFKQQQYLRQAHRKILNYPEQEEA
# [2] = target: NLRP3 (NOD-like receptor family pyrin domain containing 3), endogenous mouse (mouse (endogenous in BMDMs)) (UniProt Q8R4B8); test: co-IP; BMDMs treated with LPS plus nigericin (with and without MARCH5); immunoprecipitation with anti-NLRP3 antibody (Appendix Fig S1B)
binding [1],binding [2],Molecule
binds,–,FLAG-ASC (from UniProt Q9ULZ3 1-195)
no binding,–,FLAG-pro-caspase-1 (from UniProt P29466 1-404) (enzyme)
–,binds,B1
